According to US20170189504A1, “NOVEL PEPTIDES AND COMBINATION OF PEPTIDES FOR USE IN IMMUNOTHERAPY AGAINST VARIOUS CANCERS” (immatics biotechnologies GmbH, priority 2015, published 2017):

Legend:
[1] = tested on: source genes (mRNA); assay: Gene and exon expression of source genes, TCGA tumor samples compared with normal tissue samples (Lonsdale, 2013) (Table 17); parameters: species or system human
[2] = tested on: HLA-A*02; assay: Identification and relative LC-MS quantitation of HLA-A*02-presented tumor-associated peptides on tissue samples (presentation profiles, Tables 13A, 13B, 15, FIG. 1); parameters: species or system human; key to Presentation score NHL / Presentation score CLL / Presentation score BRCA / Presentation score AML / Presentation score GB / Presentation score NSCLC / Presentation score GBC_CCC / Presentation score UEC / Presentation score MEL / Presentation score OSCAR / Presentation score GC / Presentation score UBC / Presentation score OC / Presentation score RCC / Presentation score CRC / Presentation score PCA / Presentation score HCC / Presentation score PC / Presentation score SCLC: specifically presented on tumors (++++); very highly over-presented on tumors compared to a panel of normal tissues (+++); highly over-presented on tumors compared to a panel of normal tissues (++); over-presented on tumors compared to a panel of normal tissues (+); conditions: for Presentation score NSCLC: non-small cell lung cancer (N = 90) vs panel of normal tissues (N = 262); for Peptide Presentation on cancer entities: HLA-A*02-binding tumor-associated peptides; for Presentation score CLL: chronic lymphocytic leukemia (N = 17) vs panel of normal tissues (N = 262); for Presentation score NHL: non-Hodgkin lymphoma (N = 18) vs panel of normal tissues (N = 262); for Presentation score UBC: urinary bladder cancer (N = 16) vs panel of normal tissues (N = 262); for Presentation score AML: acute myeloid leukemia (N = 18) vs panel of normal tissues (N = 262); for Presentation score OSCAR: esophageal cancer, including cancer of the gastric-esophageal junction (N = 17) vs panel of normal tissues (N = 262); for Presentation score GC: gastric cancer (N = 29) vs panel of normal tissues (N = 262); for Presentation score OC: ovarian cancer (N = 20) vs panel of normal tissues (N = 262)
[3] = Table 13A, cancer entities on which the peptide was found presented
[4] = Table 13B, presentation on additional cancer entities

Substance	Presentation score NSCLC ([2]; HLA-A*02 peptides)	Peptide Presentation on cancer entities [2, 3]	Peptide Presentation on cancer entities [2, 4]	Presentation score UBC ([2]; HLA-A*02 peptides)	Presentation score OSCAR ([2]; HLA-A*02 peptides)	Presentation score GC ([2]; HLA-A*02 peptides)	Presentation score OC ([2]; HLA-A*02 peptides)	other results
260: peptide found in PLAA (gene looked up) (ILLEKILSL; listed as Homo sapiens) [compound 260]	+++	NSCLC, CRC	GC, HCC, PCA, CLL, OC, SCLC, UEC, BRCA, GBC_CCC, MEL, PC, AML, NHL, HNSCC					Over-expression category of source gene (target coverage), BRCA ([1]; BRCA = Breast cancer (N = 1104), tumors more than 2-fold above highest 75% percentile of normal tissues): C (>=5% of tumors above the cutoff, but <20%); Over-expression category of source gene (target coverage), READ ([1]; READ = Colon and rectal adenocarcinoma (N = 167), same cutoff): C (>=5% of tumors above the cutoff, but <20%); Presentation score CRC ([2]; HLA-A*02 peptides, colorectal cancer (N = 28) vs panel of normal tissues (N = 262)): ++
49 (ALNIATHVL; listed as Homo sapiens) [compound 49]	++++	NSCLC, CLL, UBC, NHL	CRC	++++				Presentation score CLL ([2]; HLA-A*02 peptides): ++++; Presentation score NHL ([2]; HLA-A*02 peptides): ++++
69 (FLAVGLVDV; listed as Homo sapiens) [compound 69]		AML, NHL	SCLC					Presentation score AML ([2]; HLA-A*02 peptides): ++++; Presentation score NHL ([2]; HLA-A*02 peptides): ++++
88 (AQADHLPQL; listed as Homo sapiens) [compound 88]	++++	GC, NSCLC, OSCAR			++++	++++		
240 (YMGEEKLIASV; listed as Homo sapiens) [compound 240]	+		UEC, NHL	+				Presentation score CLL ([2]; HLA-A*02 peptides): ++; Presentation score MEL ([2]; HLA-A*02 peptides, melanoma (N = 7) vs panel of normal tissues (N = 262)): +
102 (VLLDIQEVFQI; listed as Homo sapiens) [compound 102]		AML						Presentation score AML ([2]; HLA-A*02 peptides): ++++
147 (YLMDDTVEI; listed as Homo sapiens) [compound 147]		OC, GBC_CCC					+++	Presentation score GBC_CCC ([2]; HLA-A*02 peptides, gallbladder adenocarcinoma and cholangiocarcinoma (N = 6) vs panel of normal tissues (N = 262)): +++
22 (FVDPNTQEKV; listed as Homo sapiens) [compound 22]			HNSCC	++++	++++	++++	++++	Presentation score BRCA ([2]; HLA-A*02 peptides, breast cancer (N = 17) vs panel of normal tissues (N = 262)): ++++; Presentation score HCC ([2]; HLA-A*02 peptides, hepatocellular carcinoma (N = 16) vs panel of normal tissues (N = 262)): ++++
52 (RLAVLFSGA; listed as Homo sapiens) [compound 52]	++++	GC, NSCLC, OSCAR, OC	HCC		++++	++++	++++	

For some of these results: Expression values are those of the mRNA of the gene that encodes the peptide; a gene is named only where it was looked up.
